Reference: US20180195054A1 (Stanford University, published 2018)
These are yes or no findings as the source states them, for the method shown. Some entries that bind do so weakly or less than the wild type. For part of these data: Sequences can lack the tags named with a protein.

T1: mouse CD47 displayed on the surface of yeast (mouse) (UniProt Q61735)
T1 sequence (looked up): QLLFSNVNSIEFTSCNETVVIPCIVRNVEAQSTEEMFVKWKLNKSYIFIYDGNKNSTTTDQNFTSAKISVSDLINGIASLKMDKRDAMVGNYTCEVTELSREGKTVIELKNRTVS

B1: FD6-hIgG4 (FD6 d1 domain fused to hinge, CH2 and CH3 of human IgG4) (Fc fusion)
chain: EEEVQIIQPDKSVSVAAGESAILHCTITSLFPVGPIQWFRGAGPARVLIYNQRQGPFPRVTTISETTRRENMDFSISISNITPADAGTYYCIKFRKGSPDTEFKSGAGTELSVRAKPSAAAPPCPPCPAPEFLGGPSVFLFPPKPKDTLMISRTPEVTCVVVDVSQEDPEVQFNWYVDGVEVHNAKTKPREEQFNSTYRVVSVLTVLHQDWLNGKEYKCKVSNKGLPSSIEKTISKAKGQPREPQVYTLPPSQEEMTKNQVSLTCLVKGFYPSDIAVEWESNGQPENNYKTTPPVLDSDGSFFLYSRLTVDKSRWQEGNVFSCSVMHEALHNHYTQKSLSLSPGK
notes: also called FD6-hlgG4; FD-hlgG4
B2: high-affinity SIRPα variant CV1 monomer (consensus variant 1, d1 domain) (designed binder)
chain: EEELQIIQPDKSVLVAAGETATLRCTITSLFPVGPIQWFRGAGPGRVLIYNQRQGPFPRVTTVSDTTKRNNMDFSIRIGNITPADAGTYYCIKFRKGSPDDVEFKSGAGTELSVRAKPSHHHHHHHH
notes: Nine consensus substitutions grafted onto wild-type SIRPα allele 2

Assays:
[1] = molecular target: T1, mouse CD47 displayed on the surface of yeast (mouse); test: flow cytometry on yeast displaying mouse CD47, competition with wild-type mouse SIRPα tetramers
[2] = molecular target: T1, mouse CD47 displayed on the surface of yeast (mouse); test: staining of yeast displaying mouse CD47 (FIG. 17C)
[3] = molecular target: T1, mouse CD47 displayed on the surface of yeast (mouse); test: flow cytometry on yeast displaying mouse CD47

| Binder | binding [1] | binding [2] | binding [3] |
| --- | --- | --- | --- |
| B1 | binds | – | – |
| B2 | – | binds | binds |
